To fix the notation:
B1: AAA-ATPase VPS4B (protein, UniProt O75351 1-444)
chain: MSSTSPNLQKAIDLASKAAQEDKAGNYEEALQLYQHAVQYFLHVVKYEAQGDKAKQSIRAKCTEYLDRAEKLKEYLKNKEKKAQKPVKEGQPSPADEKGNDSDGEGESDDPEKKKLQNQLQGAIVIERPNVKWSDVAGLEGAKEALKEAVILPIKFPHLFTGKRTPWRGILLFGPPGTGKSYLAKAVATEANNSTFFSISSSDLVSKWLGESEKLVKNLFQLARENKPSIIFIDEIDSLCGSRSENESEAARRIKTEFLVQMQGVGVDNDGILVLGATNIPWVLDSAIRRRFEKRIYIPLPEPHARAAMFKLHLGTTQNSLTEADFRELGRKTDGYSGADISIIVRDALMQPVRKVQSATHFKKVRGPSRADPNHLVDDLLTPCSPGDPGAIEMTWMDVPGDKLLEPVVSMSDMLRSLSNTKPTVNEHDLLKLKKFTEDFGQEG
B2: EH domain containing protein family 3 (EHD3) (protein, UniProt Q9NZN3 1-535)
chain: MFSWLGTDDRRRKDPEVFQTVSEGLKKLYKSKLLPLEEHYRFHEFHSPALEDADFDNKPMVLLVGQYSTGKTTFIRYLLEQDFPGMRIGPEPTTDSFIAVMQGDMEGIIPGNALVVDPKKPFRKLNAFGNAFLNRFVCAQLPNPVLESISVIDTPGILSGEKQRISRGYDFAAVLEWFAERVDRIILLFDAHKLDISDEFSEVIKALKNHEDKMRVVLNKADQIETQQLMRVYGALMWSLGKIVNTPEVIRVYIGSFWSHPLLIPDNRKLFEAEEQDLFRDIQSLPRNAALRKLNDLIKRARLAKVHAYIISSLKKEMPSVFGKDNKKKELVNNLAEIYGRIEREHQISPGDFPNLKRMQDQLQAQDFSKFQPLKSKLLEVVDDMLAHDIAQLMVLVRQEESQRPIQMVKGGAFEGTLHGPFGHGYGEGAGEGIDDAEWVVARDKPMYDEIFYTLSPVDGKITGANAKKEMVRSKLPNSVLGKIWKLADIDKDGMLDDDEFALANHLIKVKLEGHELPNELPAHLLPPSKRKVAE

Chains of the proteins cited; added tags and fusions are not shown.
UniProt Q9Y519: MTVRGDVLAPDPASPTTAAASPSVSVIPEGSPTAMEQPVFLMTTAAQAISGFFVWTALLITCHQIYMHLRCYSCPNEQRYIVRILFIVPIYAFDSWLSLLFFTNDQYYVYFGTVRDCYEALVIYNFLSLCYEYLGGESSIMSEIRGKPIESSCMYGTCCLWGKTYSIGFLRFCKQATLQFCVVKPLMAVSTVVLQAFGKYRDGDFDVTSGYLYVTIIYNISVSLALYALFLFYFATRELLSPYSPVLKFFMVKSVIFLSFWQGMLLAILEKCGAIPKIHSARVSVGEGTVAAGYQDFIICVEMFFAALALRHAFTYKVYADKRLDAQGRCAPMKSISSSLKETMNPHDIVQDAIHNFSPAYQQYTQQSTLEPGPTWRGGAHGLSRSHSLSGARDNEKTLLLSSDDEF
UniProt Q93050: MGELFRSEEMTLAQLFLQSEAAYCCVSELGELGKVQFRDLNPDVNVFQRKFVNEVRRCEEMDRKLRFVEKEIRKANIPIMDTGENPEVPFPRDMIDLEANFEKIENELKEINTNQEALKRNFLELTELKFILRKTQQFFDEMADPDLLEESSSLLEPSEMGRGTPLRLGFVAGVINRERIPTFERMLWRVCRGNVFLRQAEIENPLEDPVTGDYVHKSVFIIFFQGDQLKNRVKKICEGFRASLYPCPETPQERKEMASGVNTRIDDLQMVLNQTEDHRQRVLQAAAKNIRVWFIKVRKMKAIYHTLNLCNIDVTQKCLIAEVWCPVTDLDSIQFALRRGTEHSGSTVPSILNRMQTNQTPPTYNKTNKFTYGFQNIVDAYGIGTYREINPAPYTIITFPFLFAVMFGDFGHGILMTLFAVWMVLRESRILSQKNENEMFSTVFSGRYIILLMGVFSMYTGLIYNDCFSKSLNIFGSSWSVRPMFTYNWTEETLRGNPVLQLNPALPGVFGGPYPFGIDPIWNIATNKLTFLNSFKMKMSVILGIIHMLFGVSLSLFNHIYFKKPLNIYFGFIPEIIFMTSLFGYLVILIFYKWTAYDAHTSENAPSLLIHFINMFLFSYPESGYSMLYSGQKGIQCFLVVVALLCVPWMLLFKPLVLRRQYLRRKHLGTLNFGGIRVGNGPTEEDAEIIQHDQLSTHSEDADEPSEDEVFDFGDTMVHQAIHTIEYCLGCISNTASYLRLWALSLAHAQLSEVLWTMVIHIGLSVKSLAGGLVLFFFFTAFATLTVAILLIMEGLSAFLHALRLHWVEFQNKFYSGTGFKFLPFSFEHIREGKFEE
UniProt Q9Y485: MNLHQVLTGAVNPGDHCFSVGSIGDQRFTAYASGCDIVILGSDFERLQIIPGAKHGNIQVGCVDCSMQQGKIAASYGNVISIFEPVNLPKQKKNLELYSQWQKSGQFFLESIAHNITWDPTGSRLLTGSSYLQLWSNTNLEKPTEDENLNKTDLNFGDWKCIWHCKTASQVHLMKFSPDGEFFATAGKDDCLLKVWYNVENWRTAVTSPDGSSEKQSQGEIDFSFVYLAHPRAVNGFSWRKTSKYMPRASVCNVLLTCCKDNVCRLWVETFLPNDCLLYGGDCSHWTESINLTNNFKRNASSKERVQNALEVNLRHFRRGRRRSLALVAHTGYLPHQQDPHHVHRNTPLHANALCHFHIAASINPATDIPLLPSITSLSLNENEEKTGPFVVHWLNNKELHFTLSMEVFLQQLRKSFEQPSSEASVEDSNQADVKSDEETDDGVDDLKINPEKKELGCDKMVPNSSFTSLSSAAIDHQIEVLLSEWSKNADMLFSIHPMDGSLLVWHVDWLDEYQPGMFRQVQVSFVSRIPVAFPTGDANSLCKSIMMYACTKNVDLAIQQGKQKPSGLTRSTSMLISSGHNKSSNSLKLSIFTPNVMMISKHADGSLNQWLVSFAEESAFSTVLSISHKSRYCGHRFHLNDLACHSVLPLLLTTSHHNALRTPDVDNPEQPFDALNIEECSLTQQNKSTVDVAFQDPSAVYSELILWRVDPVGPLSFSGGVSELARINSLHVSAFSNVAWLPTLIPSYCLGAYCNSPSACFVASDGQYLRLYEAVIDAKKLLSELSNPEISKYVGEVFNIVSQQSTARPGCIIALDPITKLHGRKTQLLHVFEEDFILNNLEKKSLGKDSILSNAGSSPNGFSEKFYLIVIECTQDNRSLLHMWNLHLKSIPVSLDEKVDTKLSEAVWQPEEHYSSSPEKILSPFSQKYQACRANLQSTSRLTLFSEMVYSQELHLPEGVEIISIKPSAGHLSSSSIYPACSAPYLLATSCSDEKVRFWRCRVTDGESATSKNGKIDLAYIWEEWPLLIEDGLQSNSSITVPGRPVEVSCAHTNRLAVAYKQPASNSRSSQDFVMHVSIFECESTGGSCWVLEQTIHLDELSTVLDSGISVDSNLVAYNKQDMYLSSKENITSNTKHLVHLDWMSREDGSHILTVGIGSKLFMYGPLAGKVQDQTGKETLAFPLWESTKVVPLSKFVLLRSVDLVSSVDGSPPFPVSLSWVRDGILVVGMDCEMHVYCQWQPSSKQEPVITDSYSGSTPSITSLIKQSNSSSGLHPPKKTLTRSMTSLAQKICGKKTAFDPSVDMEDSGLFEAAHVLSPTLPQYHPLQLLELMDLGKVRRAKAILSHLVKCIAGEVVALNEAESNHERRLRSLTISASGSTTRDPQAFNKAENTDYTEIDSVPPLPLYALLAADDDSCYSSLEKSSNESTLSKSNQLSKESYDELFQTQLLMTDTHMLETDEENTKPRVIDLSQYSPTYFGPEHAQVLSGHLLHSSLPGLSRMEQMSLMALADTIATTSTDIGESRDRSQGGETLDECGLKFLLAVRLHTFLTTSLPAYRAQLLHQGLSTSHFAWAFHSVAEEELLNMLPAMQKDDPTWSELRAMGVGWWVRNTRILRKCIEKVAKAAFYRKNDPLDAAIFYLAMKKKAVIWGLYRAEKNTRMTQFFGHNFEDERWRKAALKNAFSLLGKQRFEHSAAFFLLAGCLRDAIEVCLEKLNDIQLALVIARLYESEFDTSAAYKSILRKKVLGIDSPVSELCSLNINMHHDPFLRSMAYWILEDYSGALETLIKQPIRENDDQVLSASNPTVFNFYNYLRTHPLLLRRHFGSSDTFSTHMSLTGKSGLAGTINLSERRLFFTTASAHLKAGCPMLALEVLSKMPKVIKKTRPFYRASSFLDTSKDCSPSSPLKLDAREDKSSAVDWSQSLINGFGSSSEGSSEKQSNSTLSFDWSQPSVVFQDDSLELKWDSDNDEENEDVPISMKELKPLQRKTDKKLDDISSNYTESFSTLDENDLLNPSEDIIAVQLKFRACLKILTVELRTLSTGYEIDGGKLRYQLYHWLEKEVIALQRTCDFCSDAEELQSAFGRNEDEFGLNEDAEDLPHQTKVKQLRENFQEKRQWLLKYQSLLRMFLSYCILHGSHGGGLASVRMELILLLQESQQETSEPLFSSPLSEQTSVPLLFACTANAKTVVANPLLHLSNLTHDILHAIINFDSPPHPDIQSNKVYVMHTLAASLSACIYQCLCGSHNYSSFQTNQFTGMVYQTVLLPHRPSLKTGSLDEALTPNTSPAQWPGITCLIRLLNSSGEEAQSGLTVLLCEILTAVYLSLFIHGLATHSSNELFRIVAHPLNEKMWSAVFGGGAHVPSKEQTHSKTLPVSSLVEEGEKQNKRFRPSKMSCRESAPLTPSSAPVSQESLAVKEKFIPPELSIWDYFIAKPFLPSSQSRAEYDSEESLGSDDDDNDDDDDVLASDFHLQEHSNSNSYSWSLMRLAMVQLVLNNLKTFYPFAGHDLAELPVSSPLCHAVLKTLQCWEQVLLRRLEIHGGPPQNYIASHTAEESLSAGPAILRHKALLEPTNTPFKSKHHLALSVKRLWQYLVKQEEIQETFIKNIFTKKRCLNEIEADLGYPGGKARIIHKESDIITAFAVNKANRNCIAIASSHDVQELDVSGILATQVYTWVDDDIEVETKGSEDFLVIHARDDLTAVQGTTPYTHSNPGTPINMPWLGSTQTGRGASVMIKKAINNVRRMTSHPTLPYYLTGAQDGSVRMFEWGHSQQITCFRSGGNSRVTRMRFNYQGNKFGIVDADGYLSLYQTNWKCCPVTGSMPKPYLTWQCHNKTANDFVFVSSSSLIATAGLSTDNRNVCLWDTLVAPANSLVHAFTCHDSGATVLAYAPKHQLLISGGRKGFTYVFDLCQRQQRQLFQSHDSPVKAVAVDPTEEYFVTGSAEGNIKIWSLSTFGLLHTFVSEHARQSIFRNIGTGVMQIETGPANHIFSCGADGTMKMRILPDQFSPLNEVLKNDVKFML
UniProt Q9Y487: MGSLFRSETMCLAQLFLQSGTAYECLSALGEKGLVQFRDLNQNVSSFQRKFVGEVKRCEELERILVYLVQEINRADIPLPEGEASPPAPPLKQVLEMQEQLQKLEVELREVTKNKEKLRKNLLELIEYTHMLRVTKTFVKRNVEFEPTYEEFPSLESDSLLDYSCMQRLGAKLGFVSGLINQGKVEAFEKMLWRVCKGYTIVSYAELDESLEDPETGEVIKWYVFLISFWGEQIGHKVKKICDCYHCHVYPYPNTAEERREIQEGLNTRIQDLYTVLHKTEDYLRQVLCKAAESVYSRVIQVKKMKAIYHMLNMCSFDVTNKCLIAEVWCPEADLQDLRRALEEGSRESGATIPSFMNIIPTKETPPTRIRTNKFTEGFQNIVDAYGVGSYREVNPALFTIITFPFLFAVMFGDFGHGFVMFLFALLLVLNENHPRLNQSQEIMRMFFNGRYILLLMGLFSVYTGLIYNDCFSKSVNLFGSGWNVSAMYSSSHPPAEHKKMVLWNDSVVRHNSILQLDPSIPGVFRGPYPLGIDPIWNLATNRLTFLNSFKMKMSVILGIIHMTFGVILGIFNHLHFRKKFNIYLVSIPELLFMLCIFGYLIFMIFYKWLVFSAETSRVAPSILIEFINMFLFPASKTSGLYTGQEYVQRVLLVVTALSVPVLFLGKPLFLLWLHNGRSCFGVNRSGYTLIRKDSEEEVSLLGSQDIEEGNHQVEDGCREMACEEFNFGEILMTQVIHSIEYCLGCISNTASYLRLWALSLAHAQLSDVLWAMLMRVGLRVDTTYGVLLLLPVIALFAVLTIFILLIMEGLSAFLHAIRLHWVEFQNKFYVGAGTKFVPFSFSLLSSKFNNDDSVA
UniProt O60826: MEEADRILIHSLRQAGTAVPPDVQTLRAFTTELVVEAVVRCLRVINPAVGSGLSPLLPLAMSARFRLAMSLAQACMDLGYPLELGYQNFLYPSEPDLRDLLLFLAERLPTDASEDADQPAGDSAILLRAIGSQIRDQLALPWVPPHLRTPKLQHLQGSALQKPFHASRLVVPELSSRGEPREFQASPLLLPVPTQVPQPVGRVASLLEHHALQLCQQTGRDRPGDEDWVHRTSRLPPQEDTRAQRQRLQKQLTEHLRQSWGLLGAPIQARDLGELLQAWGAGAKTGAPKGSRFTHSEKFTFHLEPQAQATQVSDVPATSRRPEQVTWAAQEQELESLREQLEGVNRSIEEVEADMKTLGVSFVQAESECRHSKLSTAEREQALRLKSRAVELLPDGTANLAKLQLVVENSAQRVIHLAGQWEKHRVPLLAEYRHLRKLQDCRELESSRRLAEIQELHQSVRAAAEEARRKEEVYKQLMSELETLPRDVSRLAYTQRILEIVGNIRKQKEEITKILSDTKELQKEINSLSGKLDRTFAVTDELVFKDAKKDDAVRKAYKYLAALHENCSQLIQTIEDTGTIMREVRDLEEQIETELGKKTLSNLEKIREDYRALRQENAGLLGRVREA

These are yes or no findings as the source states them, for the method shown. Binding seen in cells or lysates may run through a third protein. These calls come from enrichment with a bait or labelling near it, and not all partners need be listed.

The record followed here is paper PMC12377713.

The target in one assay is Transmembrane protein 184B (TMEM184B), C-terminal Myc or V5 tag (not stated (human or mouse cDNA cloned)) (UniProt Q9Y519). The assay can be described thus: affinity purification with mass spectrometry; HEK293T transfected with TMEM184B–Myc or TMEM184B–V5, two biological replicates each; RIPA lysate (1.5 mg) on Protein A/G magnetic beads with anti-Myc or anti-V5 antibody, overnight 4°C; control baits with the same tags; hits with fold change >=2 in both tag systems, common contaminants filtered ….
For the molecule B1, the binding entry was “binds”.
The same measure, in the same setting: the entry for B2 is “binds”.

The target is the same in another assay. Described as above. This is another data set of the same source.
Turning to “ADP-ribosylation factor guanine nucleotide exchange factor 2 (ARFGEF2) (from UniProt Q9Y6D5 1-1785)”, the binding entry is “binds”.
Same read-out and setting: the result for “ATP6V0A1 (the V0a1 subunit of the V-ATPase) (from UniProt Q93050 1-837)” reads “binds”; that for “Drosophila melanogaster X chromosomal gene-like protein 1 (DMXL1) (from UniProt Q9Y485 1-3027)”, “binds”; that for “Drosophila melanogaster X chromosomal gene-like protein 2 (DMXL2) (from UniProt Q8TDJ6 1-3036)”, “binds”.
In the case of “V-ATPase subunit V0a isoform a2 (from UniProt Q9Y487 1-856)”, the binding result is given as “binds”.
The same measure, in the same setting: the entry for “coiled-coil domain containing 22 (CCDC22) (from UniProt O60826 1-627)” is “binds”.
